Earlier results, collected in publication PMC7891696, “The molecular targets of ivermectin and lotilaner in the human louse Pediculus humanus humanus: New prospects for the treatment of pediculosis” (PLoS Pathogens, 2021).

Test system: RDL-2
Conditions: GABA on RDL-2 subunit; cited from earlier work

NCCCC(=O)O [GABA, γ-aminobutyric acid]
EC50: 2400 ± 300 nM
